Experimental data taken from article PMC5627055, “Interactions of the Bacillus subtilis DnaE polymerase with replisomal proteins modulate its activity and fidelity” (Open Biology, 2017).

Target: T1, DnaE (UniProt O34623)
T1 sequence (looked up, limits assumed): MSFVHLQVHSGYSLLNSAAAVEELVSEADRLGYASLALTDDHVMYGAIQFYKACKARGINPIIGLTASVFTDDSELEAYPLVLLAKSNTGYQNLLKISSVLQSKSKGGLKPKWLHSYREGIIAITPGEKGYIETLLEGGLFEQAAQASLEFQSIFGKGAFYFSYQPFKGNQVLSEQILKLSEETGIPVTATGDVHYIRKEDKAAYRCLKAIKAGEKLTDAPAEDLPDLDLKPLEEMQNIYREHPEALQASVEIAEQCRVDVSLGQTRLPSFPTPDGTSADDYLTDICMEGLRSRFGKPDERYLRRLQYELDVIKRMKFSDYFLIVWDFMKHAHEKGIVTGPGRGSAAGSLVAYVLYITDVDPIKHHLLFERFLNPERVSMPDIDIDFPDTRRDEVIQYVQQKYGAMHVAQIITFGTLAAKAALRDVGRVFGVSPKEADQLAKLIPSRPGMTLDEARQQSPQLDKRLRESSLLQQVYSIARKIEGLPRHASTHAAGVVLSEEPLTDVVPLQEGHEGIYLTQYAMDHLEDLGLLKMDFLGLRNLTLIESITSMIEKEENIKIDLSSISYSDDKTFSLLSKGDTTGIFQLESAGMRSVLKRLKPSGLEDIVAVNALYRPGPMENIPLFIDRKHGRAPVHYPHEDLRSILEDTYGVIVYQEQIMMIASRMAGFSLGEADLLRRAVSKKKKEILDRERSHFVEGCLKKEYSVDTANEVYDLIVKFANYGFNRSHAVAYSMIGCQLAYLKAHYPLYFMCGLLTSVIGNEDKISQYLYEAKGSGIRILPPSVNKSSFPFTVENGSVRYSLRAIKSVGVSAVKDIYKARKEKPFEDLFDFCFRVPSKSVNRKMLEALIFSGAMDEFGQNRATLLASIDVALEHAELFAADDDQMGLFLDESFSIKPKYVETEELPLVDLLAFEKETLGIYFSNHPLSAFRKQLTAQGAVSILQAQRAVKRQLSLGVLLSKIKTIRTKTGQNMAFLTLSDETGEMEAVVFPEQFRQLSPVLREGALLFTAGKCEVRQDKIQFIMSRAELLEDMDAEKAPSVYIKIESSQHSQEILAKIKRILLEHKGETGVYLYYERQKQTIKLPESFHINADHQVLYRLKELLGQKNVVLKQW
Assay: EMSA
Details: 10 mM Mg2+, slight preference for DNA-primed over RNA-primed; RNA primer strand; EMSA: 20 mM HEPES pH 7.5, 50 mM NaCl, 10 mM MgCl2, 1 mM DTT, 0.66 nM radiolabelled substrate, 37 C 5 min; 5% native PAGE; recombinant protein; protein details: N-terminal His6-MBP removed by TEV; DNA:RNA hybrid

## ACACACACACACACACACACACACCCCCTT / AAGGGGGUGUGUGUG [RNA-primed 30mer template]
  binding result: binds more weakly

Construct, isoform or probe ends are uncertain for at least one entry. Weaker means in comparison with the reference protein, sequence or condition of that experiment. Tags and fusion partners may be left off the protein sequences shown.
